Data: the supplement of paper PMC10849652
This is one part of the list.

By UniProt entry, the sequences of proteins in these tests, tags left out. Where a name states a change or a piece, a line headed by the entry shows the natural chain unless it says otherwise.
UniProt P0DJ07: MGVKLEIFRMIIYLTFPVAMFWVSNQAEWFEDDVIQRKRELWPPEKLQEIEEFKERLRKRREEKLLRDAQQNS
UniProt Q9BUL8: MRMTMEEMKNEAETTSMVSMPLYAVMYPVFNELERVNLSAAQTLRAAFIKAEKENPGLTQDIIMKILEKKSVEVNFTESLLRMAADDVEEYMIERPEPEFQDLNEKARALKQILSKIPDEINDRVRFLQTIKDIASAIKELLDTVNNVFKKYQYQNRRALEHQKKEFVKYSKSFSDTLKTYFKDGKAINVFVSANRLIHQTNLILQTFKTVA
UniProt P12004, whole entry, looked up: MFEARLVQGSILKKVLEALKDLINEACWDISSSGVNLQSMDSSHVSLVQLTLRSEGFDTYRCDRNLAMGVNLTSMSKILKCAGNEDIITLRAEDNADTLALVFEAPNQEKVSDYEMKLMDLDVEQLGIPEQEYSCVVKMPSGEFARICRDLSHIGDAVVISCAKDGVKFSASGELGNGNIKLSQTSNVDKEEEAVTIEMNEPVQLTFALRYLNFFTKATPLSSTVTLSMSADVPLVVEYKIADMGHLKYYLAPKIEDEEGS
UniProt Q9BRP1: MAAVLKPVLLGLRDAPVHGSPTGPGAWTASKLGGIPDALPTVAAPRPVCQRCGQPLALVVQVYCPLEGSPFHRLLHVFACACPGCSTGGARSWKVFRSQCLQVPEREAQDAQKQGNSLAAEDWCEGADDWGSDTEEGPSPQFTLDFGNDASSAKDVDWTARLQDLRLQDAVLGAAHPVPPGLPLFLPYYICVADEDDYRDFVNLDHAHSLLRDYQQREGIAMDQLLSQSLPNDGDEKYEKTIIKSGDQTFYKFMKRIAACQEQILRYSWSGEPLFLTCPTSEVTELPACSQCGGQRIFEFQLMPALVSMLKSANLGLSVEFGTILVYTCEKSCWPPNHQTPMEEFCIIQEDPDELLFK
UniProt P50479: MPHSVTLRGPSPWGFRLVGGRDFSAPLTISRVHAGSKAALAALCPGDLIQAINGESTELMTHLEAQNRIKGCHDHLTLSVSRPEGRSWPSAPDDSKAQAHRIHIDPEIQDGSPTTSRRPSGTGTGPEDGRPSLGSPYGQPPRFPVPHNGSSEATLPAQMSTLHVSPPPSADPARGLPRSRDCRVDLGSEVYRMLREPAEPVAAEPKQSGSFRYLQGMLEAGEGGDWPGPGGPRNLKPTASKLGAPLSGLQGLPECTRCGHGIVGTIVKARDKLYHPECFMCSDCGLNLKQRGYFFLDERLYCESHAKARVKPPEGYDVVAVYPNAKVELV
UniProt Q96RG2: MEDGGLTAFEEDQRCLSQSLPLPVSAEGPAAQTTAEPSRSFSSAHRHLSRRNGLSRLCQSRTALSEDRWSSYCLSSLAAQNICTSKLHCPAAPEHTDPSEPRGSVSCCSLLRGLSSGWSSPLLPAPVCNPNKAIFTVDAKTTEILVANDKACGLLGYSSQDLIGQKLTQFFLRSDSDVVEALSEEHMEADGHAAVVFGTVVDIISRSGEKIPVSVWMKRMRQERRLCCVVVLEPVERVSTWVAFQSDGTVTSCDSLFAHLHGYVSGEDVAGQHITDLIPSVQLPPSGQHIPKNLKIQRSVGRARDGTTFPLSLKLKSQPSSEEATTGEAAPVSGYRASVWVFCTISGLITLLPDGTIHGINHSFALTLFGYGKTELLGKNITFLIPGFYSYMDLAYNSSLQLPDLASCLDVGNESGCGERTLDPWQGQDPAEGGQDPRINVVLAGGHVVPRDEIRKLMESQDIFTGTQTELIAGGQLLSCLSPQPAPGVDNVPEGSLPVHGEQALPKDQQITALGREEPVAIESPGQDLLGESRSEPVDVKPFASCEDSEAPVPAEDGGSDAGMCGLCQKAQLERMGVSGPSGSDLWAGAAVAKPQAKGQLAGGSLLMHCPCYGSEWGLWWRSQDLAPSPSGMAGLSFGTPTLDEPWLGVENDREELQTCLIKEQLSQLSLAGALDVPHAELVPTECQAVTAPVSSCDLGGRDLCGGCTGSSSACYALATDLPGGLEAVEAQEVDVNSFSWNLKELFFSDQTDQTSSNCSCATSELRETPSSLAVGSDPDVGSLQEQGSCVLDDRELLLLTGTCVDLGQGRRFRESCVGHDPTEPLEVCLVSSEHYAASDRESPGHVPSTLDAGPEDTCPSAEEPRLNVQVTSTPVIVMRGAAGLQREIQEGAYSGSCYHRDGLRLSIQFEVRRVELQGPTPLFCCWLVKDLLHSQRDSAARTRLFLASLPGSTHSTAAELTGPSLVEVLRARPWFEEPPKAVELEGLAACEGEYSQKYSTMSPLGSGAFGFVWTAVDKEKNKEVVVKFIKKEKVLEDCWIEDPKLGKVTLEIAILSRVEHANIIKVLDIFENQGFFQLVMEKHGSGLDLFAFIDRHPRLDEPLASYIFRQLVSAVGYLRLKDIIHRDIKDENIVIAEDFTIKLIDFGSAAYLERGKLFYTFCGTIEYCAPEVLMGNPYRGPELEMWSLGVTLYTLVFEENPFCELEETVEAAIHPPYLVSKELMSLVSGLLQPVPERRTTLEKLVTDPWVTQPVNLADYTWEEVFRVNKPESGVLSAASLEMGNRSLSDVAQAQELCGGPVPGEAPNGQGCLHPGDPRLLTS
UniProt Q9UKK3: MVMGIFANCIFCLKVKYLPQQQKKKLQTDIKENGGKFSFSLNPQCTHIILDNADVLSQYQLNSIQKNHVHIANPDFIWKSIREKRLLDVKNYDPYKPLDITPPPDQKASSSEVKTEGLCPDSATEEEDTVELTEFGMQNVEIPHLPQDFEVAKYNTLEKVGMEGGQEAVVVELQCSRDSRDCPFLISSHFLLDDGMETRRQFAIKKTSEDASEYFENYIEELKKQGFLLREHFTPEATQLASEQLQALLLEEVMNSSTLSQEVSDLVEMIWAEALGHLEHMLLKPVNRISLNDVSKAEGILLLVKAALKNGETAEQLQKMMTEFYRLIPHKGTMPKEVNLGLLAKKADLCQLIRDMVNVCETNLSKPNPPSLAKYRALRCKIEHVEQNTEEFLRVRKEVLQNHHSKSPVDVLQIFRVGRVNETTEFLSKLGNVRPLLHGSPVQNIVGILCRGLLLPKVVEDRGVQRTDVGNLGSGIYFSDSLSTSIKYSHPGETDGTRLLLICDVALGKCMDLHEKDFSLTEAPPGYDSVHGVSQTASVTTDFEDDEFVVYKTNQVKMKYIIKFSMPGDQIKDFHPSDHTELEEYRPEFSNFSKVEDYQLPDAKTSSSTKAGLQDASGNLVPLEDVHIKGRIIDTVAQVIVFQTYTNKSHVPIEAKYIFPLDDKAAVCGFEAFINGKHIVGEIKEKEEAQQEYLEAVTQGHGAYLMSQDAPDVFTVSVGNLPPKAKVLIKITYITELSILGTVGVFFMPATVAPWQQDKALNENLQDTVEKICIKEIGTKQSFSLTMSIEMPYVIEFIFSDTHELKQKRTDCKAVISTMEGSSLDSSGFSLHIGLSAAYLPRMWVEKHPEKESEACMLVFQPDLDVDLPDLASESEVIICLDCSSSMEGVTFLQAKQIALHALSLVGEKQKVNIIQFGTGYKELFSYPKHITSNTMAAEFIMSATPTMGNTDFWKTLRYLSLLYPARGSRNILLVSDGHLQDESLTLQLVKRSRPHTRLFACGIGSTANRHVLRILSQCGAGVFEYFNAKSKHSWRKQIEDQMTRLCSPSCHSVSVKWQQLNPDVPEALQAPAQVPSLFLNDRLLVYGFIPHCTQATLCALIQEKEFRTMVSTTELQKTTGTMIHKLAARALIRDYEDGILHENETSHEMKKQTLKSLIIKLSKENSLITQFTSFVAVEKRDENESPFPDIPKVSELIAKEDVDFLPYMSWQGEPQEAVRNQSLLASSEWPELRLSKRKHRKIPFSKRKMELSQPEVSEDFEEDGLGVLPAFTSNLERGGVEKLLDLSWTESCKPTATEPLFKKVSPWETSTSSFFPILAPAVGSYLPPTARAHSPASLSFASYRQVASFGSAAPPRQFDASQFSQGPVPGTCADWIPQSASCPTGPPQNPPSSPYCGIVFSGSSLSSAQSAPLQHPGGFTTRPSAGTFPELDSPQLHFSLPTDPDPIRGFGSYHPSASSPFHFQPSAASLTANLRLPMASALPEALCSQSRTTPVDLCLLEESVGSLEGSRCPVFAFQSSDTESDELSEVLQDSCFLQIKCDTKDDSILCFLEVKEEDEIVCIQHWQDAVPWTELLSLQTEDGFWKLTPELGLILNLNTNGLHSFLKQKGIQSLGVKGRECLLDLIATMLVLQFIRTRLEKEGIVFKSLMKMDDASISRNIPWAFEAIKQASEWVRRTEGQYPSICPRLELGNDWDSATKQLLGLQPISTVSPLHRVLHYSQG
UniProt Q92968: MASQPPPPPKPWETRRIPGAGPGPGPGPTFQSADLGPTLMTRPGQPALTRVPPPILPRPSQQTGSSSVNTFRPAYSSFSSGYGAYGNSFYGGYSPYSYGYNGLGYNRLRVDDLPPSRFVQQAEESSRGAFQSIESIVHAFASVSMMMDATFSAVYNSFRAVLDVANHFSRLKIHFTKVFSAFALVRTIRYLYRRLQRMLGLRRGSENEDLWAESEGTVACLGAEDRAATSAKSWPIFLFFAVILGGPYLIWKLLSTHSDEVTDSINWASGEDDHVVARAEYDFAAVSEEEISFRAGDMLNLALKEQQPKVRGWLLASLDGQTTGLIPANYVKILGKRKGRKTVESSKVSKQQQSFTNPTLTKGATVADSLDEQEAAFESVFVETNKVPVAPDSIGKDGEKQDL
UniProt P30101, whole entry, looked up: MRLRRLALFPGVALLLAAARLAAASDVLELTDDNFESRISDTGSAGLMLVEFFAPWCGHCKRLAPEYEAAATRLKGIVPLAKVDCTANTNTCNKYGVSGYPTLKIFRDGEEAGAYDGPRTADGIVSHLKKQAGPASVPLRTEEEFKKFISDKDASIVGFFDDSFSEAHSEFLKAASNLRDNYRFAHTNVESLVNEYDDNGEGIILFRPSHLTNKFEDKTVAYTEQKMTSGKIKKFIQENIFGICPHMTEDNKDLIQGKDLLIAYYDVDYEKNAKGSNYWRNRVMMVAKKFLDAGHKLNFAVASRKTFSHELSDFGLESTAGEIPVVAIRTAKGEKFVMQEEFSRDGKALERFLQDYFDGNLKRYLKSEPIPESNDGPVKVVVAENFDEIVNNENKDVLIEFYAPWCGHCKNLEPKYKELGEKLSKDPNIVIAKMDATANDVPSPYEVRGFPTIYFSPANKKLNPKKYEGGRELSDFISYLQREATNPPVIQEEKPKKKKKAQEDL
UniProt Q15004: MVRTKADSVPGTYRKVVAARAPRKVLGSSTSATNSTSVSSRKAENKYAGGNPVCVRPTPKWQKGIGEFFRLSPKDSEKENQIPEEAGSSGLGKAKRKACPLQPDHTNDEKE
UniProt Q9BUH6, whole entry, looked up: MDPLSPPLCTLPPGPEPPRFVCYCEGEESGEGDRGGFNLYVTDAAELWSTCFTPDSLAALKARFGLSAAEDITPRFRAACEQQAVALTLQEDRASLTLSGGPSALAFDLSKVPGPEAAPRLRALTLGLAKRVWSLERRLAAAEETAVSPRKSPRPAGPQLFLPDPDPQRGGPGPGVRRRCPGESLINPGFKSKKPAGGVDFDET
UniProt Q8WUM4: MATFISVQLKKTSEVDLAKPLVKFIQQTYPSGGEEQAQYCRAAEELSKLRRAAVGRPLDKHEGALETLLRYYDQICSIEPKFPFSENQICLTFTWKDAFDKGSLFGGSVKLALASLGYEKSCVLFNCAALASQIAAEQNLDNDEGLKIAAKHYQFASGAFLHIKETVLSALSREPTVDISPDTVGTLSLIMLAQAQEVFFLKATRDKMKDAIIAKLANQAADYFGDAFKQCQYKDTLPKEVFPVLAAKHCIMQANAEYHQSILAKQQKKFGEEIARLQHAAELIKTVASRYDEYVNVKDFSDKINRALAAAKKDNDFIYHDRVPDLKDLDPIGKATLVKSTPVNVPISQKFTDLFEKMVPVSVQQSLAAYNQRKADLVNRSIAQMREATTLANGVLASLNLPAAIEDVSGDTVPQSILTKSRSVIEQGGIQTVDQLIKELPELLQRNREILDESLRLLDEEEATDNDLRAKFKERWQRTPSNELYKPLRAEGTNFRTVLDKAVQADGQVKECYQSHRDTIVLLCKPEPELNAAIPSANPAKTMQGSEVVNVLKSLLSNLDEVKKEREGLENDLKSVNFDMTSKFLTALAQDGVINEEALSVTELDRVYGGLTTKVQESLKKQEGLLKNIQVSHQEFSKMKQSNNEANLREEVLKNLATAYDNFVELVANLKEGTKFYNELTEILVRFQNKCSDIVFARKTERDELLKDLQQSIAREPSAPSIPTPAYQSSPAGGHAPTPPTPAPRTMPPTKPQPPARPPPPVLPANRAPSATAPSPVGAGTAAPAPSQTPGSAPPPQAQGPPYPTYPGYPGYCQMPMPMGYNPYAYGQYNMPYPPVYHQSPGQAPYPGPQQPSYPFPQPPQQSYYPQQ

Assays:
Test in all cases: log2 fold change, soluble protein after heating vs DMSO (PISA); higher = thermal stabilisation; K562 lysate, 10 uM; active = over 0.2 and 3.5 SD of the protein, either way, in both replicates (recomputed)
[1] = compound: Cc1cn(-c2cc(NC(=O)c3ccc(C)c(Nc4nccc(-c5cccnc5)n4)c3)cc(C(F)(F)F)c2)cn1 [nilotinib]
Summary of the method: (§1)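 Pellets of K562 cells were dounce-homogenised in PBS pH 7.4 with 1 mM MgCl2, and the crude extract was held at 1 mg/mL protein for a 30 min treatment with 10 μM compound. Aliquots were heated for 3 min over 48°C-58°C and pooled before NP-40 was added to 0.5% at 4°C. The supernatant from 21,000xg for 90 min was quantified by TMTpro 16plex LC-MS/MS with channel sums equalised. Values are reported from duplicates as log-two fold change in thermal stability relative to solvent controls.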

[2] = compound: Cc1nc(Nc2n[nH]c3c2CN(C(=O)N[C@H](CN(C)C)c2ccccc2)C3(C)C)c2sccc2n1
Summary of the method: as §1

[3] = compound: Cc1nc(Nc2ncc(C(=O)Nc3c(C)cccc3Cl)s2)cc(N2CCN(CCO)CC2)n1 [dasatinib]
Summary of the method: as §1

[4] = compound: Cc1ncc(-c2ccnc(Nc3ccc(S(C)(=O)=O)cc3)n2)n1C(C)C
Summary of the method: as §1

[5] = compound: Cn1cc(-c2ccc3c(c2)CCN3C(=O)Cc2cccc(C(F)(F)F)c2)c2c(N)ncnc21
Summary of the method: as §1

[6] = compound: Cn1cc(CNCC2CCN(c3ncc(C(=O)NO)cn3)CC2)c2ccccc21 [quisinostat]
Summary of the method: as §1

[7] = compound: Cn1cncc1[C@@](N)(c1ccc(Cl)cc1)c1ccc2c(c1)c(-c1cccc(Cl)c1)cc(=O)n2C [tipifarnib]
Summary of the method: as §1

[8] = compound: NC(=O)Nc1cc(-c2cccc(F)c2)sc1C(=O)N[C@H]1CCCNC1
Summary of the method: as §1

[9] = compound: NC1(c2ccc(-c3nc4ccn5c(=O)[nH]nc5c4cc3-c3ccccc3)cc2)CCC1
Summary of the method: as §1

[10] = compound: NCC(=O)Nc1ccc(-n2nc(C(F)(F)F)cc2-c2ccc3c(ccc4ccccc43)c2)cc1
Summary of the method: as §1

[11] = compound: O=C(CCCCCCC(=O)Nc1ccccc1)NO [vorinostat]
Summary of the method: as §1

[12] = compound: O=C(O)c1ccc2c(c1)nc(Nc1cccc(Cl)c1)c1ccncc12 [silmitasertib]
Summary of the method: as §1

[13] = compound: O=C1NC(=O)C(c2cnc3ccccn23)=C1c1cn2c3c(cc(F)cc13)CN(C(=O)N1CCCCC1)CC2
Summary of the method: as §1

[14] = compound: NC(=O)c1cnc(N[C@@H]2CCCC[C@@H]2N)nc1Nc1cccc(-n2nccn2)c1
Summary of the method: as §1

[15] = compound: c1cn2cc(-c3ccc4cn[nH]c4c3)nc(Nc3ccc(N4CCOCC4)cc3)c2n1 [entospletinib]
Summary of the method: as §1

Measured: log2 fold change

PEAK1 (UniProt Q9H792)
inactive: [1] 0.005 | [2] -0.047 | [3] -0.014 | [4] 0.013 | [5] 0.079 | [6] 0.011 | [7] -0.116 | [8] 0.001 | [9] 0.115 | [10] 0.068 | [11] -0.054 | [12] -0.224 | [13] -0.029

PET100 (UniProt P0DJ07)
inactive: [1] -0.08 | [2] 0 | [3] -0.025 | [4] 0.059 | [5] 0.092 | [6] 0.17 | [7] 0.079 | [8] -0.022 | [14] 0.097 | [9] 0.027 | [10] 0.008 | [11] 0.131 | [12] 0.019 | [13] -0.02 | [15] -0.163

PDCD10 (UniProt Q9BUL8)
inactive: [1] 0.006 | [2] 0.121 | [3] 0.077 | [4] 0.03 | [5] 0.013 | [6] -0.053 | [7] -0.005 | [8] 0.114 | [14] -0.018 | [9] 0.004 | [10] -0.009 | [11] 0.158 | [12] -0.001 | [13] -0.037 | [15] 0.011

Pulled one by one from the entries so far (two):
PEAK1 (UniProt Q9H792)
inactive: [1] 0.005 | [2] -0.047 | [3] -0.014 | [4] 0.013 | [5] 0.079 | [6] 0.011 | [7] -0.116 | [8] 0.001 | [9] 0.115 | [10] 0.068 | [11] -0.054 | [12] -0.224 | [13] -0.029

PDCD10 (UniProt Q9BUL8)
inactive: [1] 0.006 | [2] 0.121 | [3] 0.077 | [4] 0.03 | [5] 0.013 | [6] -0.053 | [7] -0.005 | [8] 0.114 | [14] -0.018 | [9] 0.004 | [10] -0.009 | [11] 0.158 | [12] -0.001 | [13] -0.037 | [15] 0.011

The results go on:

PCNA (UniProt P12004)
inactive: [1] -0.008 | [2] -0.03 | [3] 0.009 | [4] -0.012 | [5] 0.017 | [6] 0.036 | [7] 0.022 | [8] -0.03 | [14] -0.008 | [9] 0.016 | [10] -0.006 | [11] 0.064 | [12] 0.003 | [13] -0.018 | [15] 0.009

PDCD2L (UniProt Q9BRP1)
inactive: [1] -0.011 | [2] 0.061 | [3] 0.006 | [4] 0.023 | [5] -0.041 | [6] -0.087 | [7] -0.024 | [8] 0.024 | [14] -0.009 | [9] -0.011 | [10] 0.011 | [11] -0.065 | [12] -0.008 | [13] 0.016 | [15] -0.009

PDE4DIP (UniProt E9PS60)
inactive: [1] -0.074 | [2] 0.052 | [3] -0.158 | [4] -0.045 | [5] -0.073 | [6] -0.256 | [7] 0.081 | [8] -0.205 | [9] -0.025 | [10] 0.002 | [11] -0.157 | [12] 0.082 | [13] 0.039 | [15] 0.103

PGD (UniProt P52209)
inactive: [1] -0.011 | [2] 0.005 | [3] 0.02 | [4] 0.017 | [5] -0.011 | [6] 0.007 | [7] 0.015 | [8] -0.019 | [14] 0.003 | [9] 0.033 | [10] 0.036 | [11] 0.075 | [12] 0.004 | [13] -0.015 | [15] -0.002

PDLIM4 (UniProt P50479)
inactive: [1] 0.02 | [2] 0.005 | [3] 0.007 | [4] 0.049 | [5] -0.004 | [6] 0.065 | [7] 0.019 | [8] -0.001 | [14] 0.018 | [9] -0.018 | [10] 0.05 | [11] -0.041 | [12] 0.016 | [13] 0.028 | [15] -0.017

PASK (UniProt Q96RG2)
inactive: [1] 0.046 | [2] 0.002 | [3] -0.023 | [4] 0.009 | [5] 0.005 | [6] -0.065 | [7] -0.037 | [8] 0.012 | [14] 0.006 | [9] -0.021 | [10] -0.054 | [11] -0.017 | [12] 0.107 | [13] 0.018 | [15] -0.012

PARP4 (UniProt Q9UKK3)
inactive: [1] 0.054 | [2] -0.144 | [3] 0.104 | [4] -0.076 | [5] -0.025 | [6] 0.026 | [7] -0.153 | [8] 0.041 | [14] -0.136 | [9] -0.042 | [11] -0.249 | [12] 0.035 | [13] 0.105 | [15] 0.091

PEX13 (UniProt Q92968)
inactive: [1] -0.042 | [2] 0.056 | [3] -0.141 | [4] 0.078 | [5] -0.131 | [6] 0.018 | [7] -0.011 | [8] 0.018 | [14] -0.009 | [9] -0.105 | [10] 0.017 | [11] 0.219 | [12] 0.064 | [13] 0.028 | [15] -0.014

PDIA3 (UniProt P30101)
inactive: [1] 0.019 | [2] 0.001 | [3] -0.03 | [4] -0.01 | [5] -0.011 | [6] 0.097 | [7] 0.008 | [8] -0.01 | [14] -0.013 | [9] 0.011 | [10] -0.011 | [11] 0.057 | [12] 0.005 | [13] 0.02 | [15] 0.009

PARPBP (UniProt Q9NWS1)
inactive: [1] -0.246 | [2] 0.269 | [3] 0 | [4] 0.104 | [5] -0.002 | [7] 0.117 | [9] -0.025 | [10] 0.08 | [11] 0.036 | [12] 0.068 | [15] -0.05

PCLAF (UniProt Q15004)
inactive: [1] -0.115 | [2] 0.081 | [3] 0.001 | [4] 0.02 | [5] -0.087 | [6] -0.044 | [7] 0.018 | [8] -0.018 | [9] 0.094 | [10] 0.022 | [12] -0.029 | [13] -0.025 | [15] 0.009
active: [11] -0.29

PAXX (UniProt Q9BUH6)
inactive: [1] 0.007 | [2] 0.038 | [3] 0.043 | [4] -0.028 | [5] -0.012 | [6] -0.048 | [7] 0.019 | [8] 0 | [14] 0.012 | [9] 0.001 | [10] -0.019 | [11] 0.031 | [12] -0.018 | [13] -0.026 | [15] 0.019

PDCD6IP isoform 2 (UniProt Q8WUM4)
active: [11] -0.473
inactive: [1] -0.018 | [2] 0.007 | [3] -0.042 | [4] 0.004 | [5] 0.022 | [6] 0.002 | [7] 0.016 | [8] -0.001 | [14] 0.018 | [9] 0.002 | [10] -0.001 | [12] 0.019 | [13] -0.006 | [15] 0.018
